Results are given in words; binding and its absence hold for the method and conditions named. Some results given as binding are weak or reduced against the parent protein; the word gives no strength.
B1: untagged RECQ1 (utRECQ1; human RECQ1 helicase after removal of the N-terminal His6-tag) (enzyme, UniProt P46063 1-649, looked up)
chain: MASVSALTEELDSITSELHAVEIQIQELTERQQELIQKKKVLTKKIKQCLEDSDAGASNEYDSSPAAWNKEDFPWSGKVKDILQNVFKLEKFRPLQLETINVTMAGKEVFLVMPTGGGKSLCYQLPALCSDGFTLVICPLISLMEDQLMVLKQLGISATMLNASSSKEHVKWVHAEMVNKNSELKLIYVTPEKIAKSKMFMSRLEKAYEARRFTRIAVDEVHCCSQWGHDFRPDYKALGILKRQFPNASLIGLTATATNHVLTDAQKILCIEKCFTFTASFNRPNLYYEVRQKPSNTEDFIEDIVKLINGRYKGQSGIIYCFSQKDSEQVTVSLQNLGIHAGAYHANLEPEDKTTVHRKWSANEIQVVVATVAFGMGIDKPDVRFVIHHSMSKSMENYYQESGRAGRDDMKADCILYYGFGDIFRISSMVVMENVGQQKLYEMVSYCQNISKCRRVLMAQHFDEVWNSEACNKMCDNCCKDSAFERKNITEYCRDLIKILKQAEELNEKLTPLKLIDSWMGKGAAKLRVAGVVAPTLPREDLEKIIAHFLIQQYLKEDYSFTAYATISYLKIGPKANLLNNEAHAITMQVTKSTQNSFRAESSQTCHSEQGDKKMEEKNSGNFQKKAANMLQQSGSKNTGAKKRKIDDA
notes: human RECQ1 helicase (alias RECQL), the 649-amino acid variant; also called untagged wild-type RECQ1; source: baculovirus/Sf9 cells, purified; not shown: His6, N-terminal, cleaved

Tests used:
[1] = biological target: His6-RECQ1 (human RECQ1 helicase, wild type, 649-amino acid variant) (human) (UniProt P46063); experiment: negative-stain transmission electron microscopy; unpublished data: His-tagged RECQ1 with ssDNA, and upon addition of ATP; both purified
[2] = biological target: His6-RECQ1 (human RECQ1 helicase, wild type, 649-amino acid variant) (human) (UniProt P46063); experiment: negative-stain transmission electron microscopy; about 15 ug/ml protein in 20 mM TrisHCl pH 7.4, 150 mM KCl, 2 mM MgCl2, 1% uranyl acetate; alone or with 1.5 molar excess oligo(dT)30, no nucleotide; single-particle 3D reconstruction without symmetry; both purified
[3] = biological target: untagged RECQ1 (utRECQ1; human RECQ1 helicase after removal of the N-terminal His6-tag) (human) (UniProt P46063); experiment: negative-stain transmission electron microscopy; as a2 but with 2-5 mM ATP or ATPγS, with or without oligo(dT)30; both purified

Row | Molecule | binding [1] | binding [2] | binding [3]
1 | His6-RECQ1 (human RECQ1 helicase, wild type, 649-amino acid variant) (from UniProt P46063 1-649) (enzyme) | binds | binds | 
2 | B1 |  |  | binds weakly

Reference: PMC1769423, “Different Quaternary Structures of Human RECQ1 Are Associated with Its Dual Enzymatic Activity” (PLoS Biology, 2007)
